Measured values published in patent publication US20180064666A1.
Results are given in words; binding and its absence hold for the method and conditions named. For some of these results: In cells and extracts the contact can be indirect. Some results given as binding are weak or reduced against the parent protein; the word gives no strength.

Protein sequences, listed by entry. Tags and fused reporters are not part of them. Lines headed by an entry give the natural chain unless they say otherwise; changes in a name come on top. Residues count along the entry.
UniProt P28482: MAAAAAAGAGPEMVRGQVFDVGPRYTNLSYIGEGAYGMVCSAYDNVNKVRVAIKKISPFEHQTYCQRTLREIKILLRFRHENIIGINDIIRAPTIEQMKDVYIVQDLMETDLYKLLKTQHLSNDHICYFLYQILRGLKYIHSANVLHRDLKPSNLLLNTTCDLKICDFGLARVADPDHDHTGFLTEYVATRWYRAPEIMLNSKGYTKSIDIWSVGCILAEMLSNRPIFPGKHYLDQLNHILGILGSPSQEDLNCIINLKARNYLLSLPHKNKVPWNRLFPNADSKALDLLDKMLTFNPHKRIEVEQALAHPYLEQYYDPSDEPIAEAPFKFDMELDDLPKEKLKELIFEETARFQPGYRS
Erk2 (endogenous, member of Erk1/2) (human (endogenous in human cell lines)): residues 2-360 of P28482
UniProt P27361: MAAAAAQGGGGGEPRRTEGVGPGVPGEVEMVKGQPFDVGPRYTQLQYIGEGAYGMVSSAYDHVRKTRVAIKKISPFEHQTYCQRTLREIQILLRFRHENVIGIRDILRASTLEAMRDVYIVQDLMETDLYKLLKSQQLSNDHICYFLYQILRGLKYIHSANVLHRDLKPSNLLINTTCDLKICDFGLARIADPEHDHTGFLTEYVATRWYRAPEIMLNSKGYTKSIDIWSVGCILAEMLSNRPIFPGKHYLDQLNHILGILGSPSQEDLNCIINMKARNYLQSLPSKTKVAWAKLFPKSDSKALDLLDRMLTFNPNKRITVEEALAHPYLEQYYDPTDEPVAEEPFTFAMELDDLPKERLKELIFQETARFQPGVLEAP
Erk1 (endogenous, member of Erk1/2) (human (endogenous in human cell lines)): residues 2-379 of P27361
UniProt P61019: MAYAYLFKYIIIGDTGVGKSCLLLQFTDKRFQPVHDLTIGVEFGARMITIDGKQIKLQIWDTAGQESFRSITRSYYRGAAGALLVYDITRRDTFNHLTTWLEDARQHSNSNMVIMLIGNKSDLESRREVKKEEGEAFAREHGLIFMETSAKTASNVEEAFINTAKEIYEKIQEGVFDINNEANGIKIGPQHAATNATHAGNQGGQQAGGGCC

What was measured:
[1] = target: Erk2 (endogenous, member of Erk1/2) (human (endogenous in human cell lines)) (UniProt P28482); test: GST pull-down (FIG. 45F)
[2] = target: Erk1 (endogenous, member of Erk1/2) (human (endogenous in human cell lines)) (UniProt P27361); test: GST pull-down (FIG. 45F)
[3] = target: recombinant Erk2 (UniProt P28482); test: in vitro binding of recombinant proteins to GST-Rab2A (FIG. 47A)
[4] = target: recombinant Erk1 (UniProt P27361); test: as above

Measured: binding

GST-Rab2A fusion protein (wild-type) (from UniProt P61019 1-212) (enzyme)
binds: all assays above
